The target in test [1] is ephrinB2 (mouse (endogenous in primary hippocampal neurons)) (UniProt P52800). The test can be described thus: proximity ligation; cultured wild type hippocampal neurons 14 DIV, with or without VEGF for 30 min; ephrinB2 detected with pre-clustered EphB4-Fc, VEGFR2 with goat anti-VEGFR2 antibody (AF644); human IgG Fc fragment as negative control.
For test [2] the target is unchanged. The test can be described thus: co-IP; lysate of primary wild type hippocampal neurons 14 DIV; ephrinB2 pulled down with beads coupled with EphB4-Fc, Fc fragment as control; western blots with anti-VEGFR2 and anti-ephrinB2; lysis in 50 mM Tris/HCl pH 7.5, 1% Triton X-100, 150 mM NaCl, 4°C. A general note: A western blot detects proteins with antibodies after separation by electrophoresis.

Amino acid sequences for entries named in this document (tags omitted). Residues count along the entry.
UniProt P52800, residues 29-336: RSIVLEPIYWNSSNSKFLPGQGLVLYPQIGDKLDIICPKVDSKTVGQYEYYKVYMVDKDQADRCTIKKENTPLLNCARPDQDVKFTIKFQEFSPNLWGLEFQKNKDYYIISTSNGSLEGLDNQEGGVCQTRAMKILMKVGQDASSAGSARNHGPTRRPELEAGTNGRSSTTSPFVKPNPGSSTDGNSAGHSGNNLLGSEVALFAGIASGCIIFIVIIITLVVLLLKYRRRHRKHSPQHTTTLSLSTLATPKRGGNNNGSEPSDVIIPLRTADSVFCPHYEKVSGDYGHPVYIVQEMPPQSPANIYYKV
UniProt P35918, residues 20-1345: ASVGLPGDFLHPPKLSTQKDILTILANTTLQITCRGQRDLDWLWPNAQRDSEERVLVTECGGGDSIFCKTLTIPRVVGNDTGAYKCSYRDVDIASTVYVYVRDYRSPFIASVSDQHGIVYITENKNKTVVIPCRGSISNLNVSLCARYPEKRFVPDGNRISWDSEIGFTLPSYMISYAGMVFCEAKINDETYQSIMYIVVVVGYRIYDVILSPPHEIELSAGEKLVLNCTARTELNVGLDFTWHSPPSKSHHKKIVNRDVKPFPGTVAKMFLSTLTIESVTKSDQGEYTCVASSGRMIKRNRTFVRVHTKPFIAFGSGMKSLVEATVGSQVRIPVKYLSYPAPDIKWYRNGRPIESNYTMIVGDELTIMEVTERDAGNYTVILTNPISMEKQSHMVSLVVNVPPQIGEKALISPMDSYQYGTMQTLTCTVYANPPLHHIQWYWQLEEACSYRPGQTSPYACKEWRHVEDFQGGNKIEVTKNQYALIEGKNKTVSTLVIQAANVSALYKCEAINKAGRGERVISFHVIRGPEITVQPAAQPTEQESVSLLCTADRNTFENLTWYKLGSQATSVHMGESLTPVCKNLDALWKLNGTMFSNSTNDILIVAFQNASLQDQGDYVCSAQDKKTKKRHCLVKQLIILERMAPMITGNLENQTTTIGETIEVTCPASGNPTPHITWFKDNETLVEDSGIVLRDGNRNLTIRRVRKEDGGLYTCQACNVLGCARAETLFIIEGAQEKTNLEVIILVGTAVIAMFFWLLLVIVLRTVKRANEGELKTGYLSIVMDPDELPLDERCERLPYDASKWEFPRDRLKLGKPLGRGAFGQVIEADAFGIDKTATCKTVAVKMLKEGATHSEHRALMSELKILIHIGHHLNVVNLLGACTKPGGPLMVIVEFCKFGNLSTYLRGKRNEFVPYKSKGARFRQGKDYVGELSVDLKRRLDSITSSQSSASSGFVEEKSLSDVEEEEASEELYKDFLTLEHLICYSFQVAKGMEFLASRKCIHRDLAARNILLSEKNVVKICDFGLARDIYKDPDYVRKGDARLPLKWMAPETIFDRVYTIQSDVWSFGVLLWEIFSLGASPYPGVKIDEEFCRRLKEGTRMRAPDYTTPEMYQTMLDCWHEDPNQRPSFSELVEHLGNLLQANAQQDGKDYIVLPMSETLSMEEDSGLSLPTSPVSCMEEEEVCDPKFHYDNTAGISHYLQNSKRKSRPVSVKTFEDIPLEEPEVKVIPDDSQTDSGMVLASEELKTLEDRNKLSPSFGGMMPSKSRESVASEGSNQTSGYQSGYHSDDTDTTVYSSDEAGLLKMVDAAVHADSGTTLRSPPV

Test [3] concerns the target T1, Recombinant mouse EphB4-Fc chimera (mouse) (UniProt P54761).
T1 sequence: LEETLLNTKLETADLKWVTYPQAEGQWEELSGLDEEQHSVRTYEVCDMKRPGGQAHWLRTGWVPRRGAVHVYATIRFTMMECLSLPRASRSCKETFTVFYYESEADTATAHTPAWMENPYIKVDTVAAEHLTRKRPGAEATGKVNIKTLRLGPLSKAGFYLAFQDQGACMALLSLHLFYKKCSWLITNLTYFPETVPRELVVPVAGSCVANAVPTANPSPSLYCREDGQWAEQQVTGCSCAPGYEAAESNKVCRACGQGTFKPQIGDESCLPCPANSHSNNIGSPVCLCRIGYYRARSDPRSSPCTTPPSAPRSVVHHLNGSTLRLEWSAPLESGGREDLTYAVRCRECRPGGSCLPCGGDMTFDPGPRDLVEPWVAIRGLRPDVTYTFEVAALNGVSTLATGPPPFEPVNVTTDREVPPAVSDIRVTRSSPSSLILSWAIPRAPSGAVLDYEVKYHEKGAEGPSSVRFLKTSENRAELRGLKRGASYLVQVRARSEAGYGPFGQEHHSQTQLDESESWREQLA
The experiment in a line: pull-down; EphB4-Fc coupled to beads, incubated with lysate of primary wild type hippocampal neurons 14 DIV; Fc fragment as control; western blot with anti-ephrinB2; only the target purified.

These results are taken from paper PMC6927743.

No constants are given. Whether binding was seen depends on the method and setting. Binding seen in cells or lysates may run through a third protein. Some entries that bind do so weakly or less than the wild type. For part of these data: Tags and fused reporters may be left off the sequences shown.

“VEGFR2 (from UniProt P35918 20-1345) (receptor)”: the binding entry in test [1] and in test [2] was “binds” throughout.

“ephrinB2 (from UniProt P52800 29-336) (ligand)”: the binding result in test [3] is “binds”.
